Like-named read-outs stand apart in the source and are kept apart here. Results are given in words; binding and its absence hold for the method and conditions named. In cells and extracts the contact can be indirect. A yes stands for co-enrichment or nearness to the bait. Other partners may have been found. Each block holds one molecule with its values, some of them ahead of it.
Assays:
[1] = target: T1, HOP homeobox (HOPX), stably overexpressed in CNE2 and SUNE1 cells (human) (UniProt Q9BPY8); assay: affinity purification with mass spectrometry; immunoprecipitation with anti-HOPX antibody (anti-IgG as negative control) from lysate of SUNE1 cells with stable HOPX overexpression, overnight at 4 °C, Protein A/G Sepharose beads; mass spectrometry
T1 sequence: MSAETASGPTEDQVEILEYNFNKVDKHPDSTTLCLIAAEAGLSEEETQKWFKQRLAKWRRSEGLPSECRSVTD

By UniProt entry, the sequences of proteins in these tests, tags left out.
UniProt Q92769: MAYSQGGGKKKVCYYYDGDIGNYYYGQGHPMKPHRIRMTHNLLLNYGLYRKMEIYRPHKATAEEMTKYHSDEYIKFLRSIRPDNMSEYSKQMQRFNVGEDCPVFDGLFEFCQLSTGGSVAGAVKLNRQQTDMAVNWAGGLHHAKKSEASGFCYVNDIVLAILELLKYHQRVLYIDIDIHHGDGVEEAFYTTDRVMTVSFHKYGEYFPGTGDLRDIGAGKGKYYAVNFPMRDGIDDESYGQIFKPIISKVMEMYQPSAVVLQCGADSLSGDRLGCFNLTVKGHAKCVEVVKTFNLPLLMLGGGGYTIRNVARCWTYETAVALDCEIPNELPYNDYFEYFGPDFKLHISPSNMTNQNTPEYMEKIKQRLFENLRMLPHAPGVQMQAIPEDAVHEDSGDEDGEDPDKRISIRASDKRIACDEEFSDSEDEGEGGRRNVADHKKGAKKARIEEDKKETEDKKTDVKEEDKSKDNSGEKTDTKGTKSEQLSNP

[2] = target: T1, HOP homeobox (HOPX), stably overexpressed in CNE2 and SUNE1 cells (human); assay: as above; remark: listed apart in the source

binding [1]: binds
Molecule: histone deacetylases 2 (HDAC2) (from UniProt Q92769 1-488)

binding [2]: binds
B1: serum response factor (SRF) (protein, UniProt P11831 1-508)
chain: MLPTQAGAAAALGRGSALGGSLNRTPTGRPGGGGGTRGANGGRVPGNGAGLGPGRLEREAAAAAATTPAPTAGALYSGSEGDSESGEEEELGAERRGLKRSLSEMEIGMVVGGPEASAAATGGYGPVSGAVSGAKPGKKTRGRVKIKMEFIDNKLRRYTTFSKRKTGIMKKAYELSTLTGTQVLLLVASETGHVYTFATRKLQPMITSETGKALIQTCLNSPDSPPRSDPTTDQRMSATGFEETDLTYQVSESDSSGETKDTLKPAFTVTNLPGTTSTIQTAPSTSTTMQVSSGPSFPITNYLAPVSASVSPSAVSSANGTVLKSTGSGPVSSGGLMQLPTSFTLMPGGAVAQQVPVQAIQVHQAPQQASPSRDSSTDLTQTSSSGTVTLPATIMTSSVPTTVGGHMMYPSPHAVMYAPTSGLGDGSLTVLNAFSQAPSTMQVSHSQVQEPGGVPQVFLTASSGTVQIPVSAVQLHQMAVIGQQAGSSSNLTELQVVNLDTAHSTKSE

— publication PMC5296651
